Here are results for 19 compounds from PubChem BioAssay AID246 (DTP/NCI, 2004).

The assay has as its system BDF1 mice, P1081 chloroleukemia ip, survival T/C. Put plainly: NCI In Vivo Anticancer Drug Screen. Data for tumor model P1081 Chloroleukemia (intraperitoneal) in B6D2F1 (BDF1) mice. Particulars: T/C endpoint: mean survival time, higher T/C = longer survival. The method, then: The antitumor activity of compounds was measured in mice bearing transplantable tumors. Survival or tumor size were measured and the results are expressed as the measurement made in the treated group (T) divided by the measurement made in the vehicle treated control group (C). The tumor model used in this assay is P1081 Chloroleukemia (intraperitoneal) in B6D2F1 (BDF1) mice

Where [1] appears, read: dose: 63.0 micrograms/kg/injection, schedule: Q01DX Z (ip), vehicle: alkali diluted with saline.
[2] abbreviates: dose: 50.0 mg/kg/injection, schedule: Q01DX Z (ip), vehicle: carboxymethylcellulose (CMC).
Where [3] appears, read: dose: 100.0 mg/kg/injection, schedule: Q01DX Z (ip), vehicle: carboxymethylcellulose (CMC).
The mark [4] stands for this setting: dose: 62.5 mg/kg/injection, schedule: Q01DX010 (ip), vehicle: saline.
[5] abbreviates: dose: 125.0 mg/kg/injection, schedule: Q01DX Z (ip), vehicle: carboxymethylcellulose (CMC).
Where [6] appears, read: dose: 200.0 mg/kg/injection, schedule: Q01DX Z (ip), vehicle: carboxymethylcellulose (CMC).
[7] abbreviates: dose: 400.0 mg/kg/injection, schedule: Q01DX Z (ip), vehicle: carboxymethylcellulose (CMC).
[8] abbreviates: dose: 12.5 mg/kg/injection, schedule: Q01DX Z (ip), vehicle: carboxymethylcellulose (CMC).
Setting [9] is: dose: 25.0 mg/kg/injection, schedule: Q01DX Z (ip), vehicle: carboxymethylcellulose (CMC).
Setting [10] is: dose: 2.0 mg/kg/injection, schedule: Q01DX Z (ip), vehicle: water.
[11] abbreviates: dose: 4.0 mg/kg/injection, schedule: Q01DX Z (ip), vehicle: water.
[12] abbreviates: dose: 0.12 mg/kg/injection, schedule: Q01DX Z (ip), vehicle: saline.

The list does not hold the whole screen: it gathers tests that were run many times, whatever their T/C, doses with no T/C, and many T/C values between a quarter and a half above the control. Other doses and runs of a compound stand elsewhere. T/C: endpoint of the treated group in % of that of the vehicle group. Some entries give survivors of the animals treated and no T/C: the source files T/C as zero there, which appears to mark a toxic dose or a test without result, not a measured value. Some doses without a T/C left all or most animals alive at the check, yet need not have been tolerated: survival well below the control is almost never listed, so the zero probably covers shortened survival too. Survivors were counted at the toxicity check, usually on the fifth day, unless a day is given; later deaths do not show. Schedule codes are those of the source, read here as Q, the interval in days (D) or hours (H), X, the number of doses. Some schedules carry Z or #; the key to these is not given. Some molecules as drawn cover several salts, stereoisomers or complexes of the source; a dose is that of the sample tested. Some entries hold several experiments; their values stand side by side, smallest first. For survival time, this PubChem deposit counts one and a half times the control or more as active, and values a quarter to a half above the control carry no call in these data; other NCI protocols may use other cut-offs. Some T/C values carry the count of animals alive at the toxicity check (mostly the fifth day); without a count, all were alive then.

Regarding `Nc1nc(N)c2nc(CNc3ccc(C(=O)NC(CCC(=O)O)C(=O)O)cc3)cnc2n1` (stereo not given), the T/C (dose: 0.1 mg/kg/injection, schedule: Q01DX010 (ip), vehicle: other) is 125 and 140 % of control; the T/C under setting [1] is 135 % of control. For the same compound, the survivor count was 3 of 6 (dose: 0.4 mg/kg/injection, schedule: Q01DX010 (ip), vehicle: other); 6 of 6 under setting [1]; 6 of 6 (dose: 125.0 micrograms/kg/injection, schedule: Q01DX Z (ip), vehicle: alkali diluted with saline); 6 of 6 (dose: 250.0 micrograms/kg/injection, schedule: Q01DX Z (ip), vehicle: alkali diluted with saline); 5 of 6 (dose: 500.0 micrograms/kg/injection, schedule: Q01DX Z (ip), vehicle: alkali diluted with saline).

Regarding `CN(Cc1cnc2nc(N)nc(N)c2n1)c1c(Cl)cc(C(=O)NC(CCC(=O)O)C(=O)O)cc1Cl` (stereo not given), the T/C under setting [2] is 130 % of control. Besides, the survivor count under setting [3] is given as 5 of 6.

In the case of `CN(C)CC(=O)c1ccc(O)c(O)c1`, the survivor count (dose: 1000.0 mg/kg/injection, schedule: Q01DX Z (ip), vehicle: saline) was 0 of 6.

Consider `Nc1ncnc2c1ccn2C1OC(CO)C(O)C1O` (stereo not given), for which, for the setting “dose: 2.5 mg/kg/injection, schedule: Q01DX Z (ip), vehicle: carboxymethylcellulose (CMC)”, the survivor count is listed as 6 of 6.

On to `CN(C)/N=N/c1nc[nH]c1C(N)=O`, for which the T/C is, setting by setting: (dose: 50.0 mg/kg/injection, schedule: Q01DX010 (ip), vehicle: saline) 144 % of control; (dose: 200.0 mg/kg/injection, schedule: Q01DX010 (ip), vehicle: saline) 135 % of control. The survivor count (dose: 400.0 mg/kg/injection, schedule: Q01DX010 (ip), vehicle: saline) is given as 4 of 6.

As to `S=P(N1CC1)(N1CC1)N1CC1`, the T/C (dose: 3.0 mg/kg/injection, schedule: Q01DX Z (ip), vehicle: saline) was 128 % of control.

In the case of `CSc1ncnc2c1ncn2C1OC(CO)C(O)C1O` (stereo not given), the T/C (dose: 6.25 mg/kg/injection, schedule: Q01DX Z (ip), vehicle: carboxymethylcellulose (CMC)) is 138 % of control. Further, the survivor count under setting [2] is listed as 4 of 6.

Turning to `C[C@H]1C(=O)O[C@@H]2CCN3CC=C(COC(=O)[C@](C)(O)[C@@]1(C)O)[C@H]23`, the T/C is 125 % of control (dose: 6.25 mg/kg/injection, schedule: Q01DX010 (ip), vehicle: saline); 125 % of control (dose: 12.5 mg/kg/injection, schedule: Q01DX010 (ip), vehicle: saline); 133 % of control (dose: 120.0 mg/kg/injection, schedule: Q01DX Z (ip), vehicle: carboxymethylcellulose (CMC)). Moreover, the survivor count reads like this: (dose: 240.0 mg/kg/injection, schedule: Q01DX Z (ip), vehicle: carboxymethylcellulose (CMC)) 0 of 6; (dose: 480.0 mg/kg/injection, schedule: Q01DX Z (ip), vehicle: carboxymethylcellulose (CMC)) 0 of 6.

Consider `N#[N+]c1cnc([O-])[nH]c1=O`, for which, for the setting “dose: 5.0 mg/kg/injection, schedule: Q01DX010 (ip), vehicle: saline”, the T/C was 138 % of control. Under “dose: 20.0 mg/kg/injection, schedule: Q01DX010 (ip), vehicle: saline”, the survivor count is listed as 1 of 6.

For the compound `OCC1OC(n2cnc3c(Cl)ncnc32)C(O)C1O` (stereo not given), the survivor count under setting [4] is reported as 6 of 6 and the survivor count under setting [5] is on record as 4 of 6.

With `CN(C)c1ccc(/C=C/c2ccnc3ccccc23)cc1`, the survivor count is recorded as 6 of 6 (dose: 12.5 mg/kg/injection, schedule: Q01DX Z (ip), vehicle: water); 6 of 6 (dose: 25.0 mg/kg/injection, schedule: Q01DX Z (ip), vehicle: water); 5 of 6 (dose: 50.0 mg/kg/injection, schedule: Q01DX Z (ip), vehicle: water); 1 of 6 (dose: 100.0 mg/kg/injection, schedule: Q01DX Z (ip), vehicle: water); 6 of 6 under setting [6]; 5 of 6 under setting [7].

Regarding `Nc1nc(SCc2ccccc2)c2[nH]cnc2n1`, the survivor count (dose: 37.5 mg/kg/injection, schedule: Q01DX Z (ip), vehicle: carboxymethylcellulose (CMC)) is reported as 6 of 6 and the survivor count (dose: 75.0 mg/kg/injection, schedule: Q01DX Z (ip), vehicle: carboxymethylcellulose (CMC)) is listed as 6 of 6.

As to `C[N+](C)(C)c1ncnc2nc[nH]c12`, the T/C was 139 % of control under setting [8]; 92, 106, 147 % of control under setting [9]; 130 % of control under setting [3]. For the same compound, the survivor count reads like this: under setting [8], 6 of 6; under setting [9], 5 of 6; under setting [2], 6 of 6; under setting [3], 6 of 6; under setting [6], 0 of 6 and 5 of 6; under setting [7], 1 of 6. Besides, the survivor count (dose: 800.0 mg/kg/injection, schedule: Q01DX Z (ip), vehicle: carboxymethylcellulose (CMC)) is on record as 0 of 6.

On to `O=C(Nc1ccc(C2=NCCCN2)cc1)c1ccc(C(=O)Nc2ccc(C3=NCCCN3)cc2)cc1`, for which the survivor count (dose: 0.25 mg/kg/injection, schedule: Q01DX Z (ip), vehicle: water) is on record as 6 of 6; the survivor count under setting [10] is reported as 3 of 6; the survivor count under setting [11] is 2 of 6; the survivor count (dose: 8.0 mg/kg/injection, schedule: Q01DX Z (ip), vehicle: water) was 1 of 6; the survivor count (dose: 16.0 mg/kg/injection, schedule: Q01DX Z (ip), vehicle: water) is 1 of 6. For the same compound, the T/C under setting [10] was 126 and 147 % of control; the T/C under setting [11] was 138 % of control [5 of 6 alive].

In the case of `C1CN1c1nc(N2CC2)nc(N2CC2)n1`, the T/C is 134 % of control under setting [12]; 127 % of control (dose: 0.25 mg/kg/injection, schedule: Q01DX010 (ip), vehicle: saline); 133 % of control (dose: 0.5 mg/kg/injection, schedule: Q01DX010 (ip), vehicle: saline). Further, the survivor count under setting [12] is listed as 6 of 6 and the survivor count (dose: 1.0 mg/kg/injection, schedule: Q01DX010 (ip), vehicle: saline) is given as 5 of 6.

Take `O=C(Nc1ccc(C2=NCCCN2)cc1)c1ccc(NC(=O)c2ccc(C3=NCCCN3)cc2)cc1`: the T/C (dose: 7.8 mg/kg/injection, schedule: Q01DX Z (ip), vehicle: carboxymethylcellulose (CMC)) is 136 % of control.

On to `CC(=O)Nc1ccc(/C=N/Nc2ccc([N+](=O)[O-])cn2)cc1`, for which the survivor count by setting is: (dose: 31.3 mg/kg/injection, schedule: Q01DX010 (ip), vehicle: saline) 6 of 6; under setting [4], 6 of 6; (dose: 125.0 mg/kg/injection, schedule: Q01DX010 (ip), vehicle: saline) 6 of 6; (dose: 250.0 mg/kg/injection, schedule: Q01DX010 (ip), vehicle: saline) 4 of 6.

On to `O=c1[nH]c(=O)n(C2CC(O)C(CO)O2)cc1I` (stereo not given), for which, under “dose: 62.5 mg/kg/injection, schedule: Q01DX Z (ip), vehicle: carboxymethylcellulose (CMC)”, the survivor count was 6 of 6. Besides, the T/C under setting [5] was 126 % of control.

`C[C@@H]1C[C@@H]([C@H](O)CC2CC(=O)NC(=O)C2)C(=O)[C@@H](C)C1`: the T/C (dose: 40.0 mg/kg/injection, schedule: Q01DX010 (ip), vehicle: saline) is 130 % of control. Further, the survivor count (dose: 200.0 mg/kg/injection, schedule: Q01DX Z (ip), vehicle: water) is given as 0 of 6.
